Source: PubChem BioAssay AID504444 (National Center for Advancing Translational Sciences (NCATS), 2011)
The campaign covered roughly 360,000 compounds. About 7,500 (2.1%) were called active. The shares of active, inactive and inconclusive entries below differ from those in the screen. Calls follow the shape of the dose curve; as a rule, active = well fitted inhibition curve with a large enough effect; inconclusive = small, poorly fitted or top-dose-only effect, or effect the other way; inactive = flat fitted curve, though single readings scatter. A potency beside an inconclusive call is a rough fit, not a confirmed value.

Test: Nrf2 qHTS screen for inhibitors; also: nearly all actives have a fitted effect of over 60% in size
Settings: A549 ARE-Fluc reporter, luciferase luminescence, 18-24 h; series mostly up to 46 µM
Method in brief: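 A549 ARE_Fluc cells, 5000/well, 5% FBS OPTI-MEM; compounds in dose-response, 18-24 h at 37 °C/5% CO2; CellTiter-Fluor viability read (Ex 405/Em 525), then BugLite luciferase luminescence = Nrf2 activity.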
Potency is read from the fitted curve at half-maximal effect.

Structure (SMILES)	Potency
CCN(CC)S(=O)(=O)c1ccc(/C=C/C(=O)Nc2ccc(F)c(F)c2F)cc1	inconclusive: 2.31 µM [falling, full curve]
Cc1cc(C)c2cc(CN(Cc3ccc4c(c3)OCO4)Cc3nnnn3Cc3ccco3)c(=O)[nH]c2c1	inconclusive: 29.1 µM [falling, single point]
C=C1CCC[C@]2(C)C[C@H]3OC(=O)C(CNC(C)CCCC(C)C)[C@H]3CC12 (stereo not given in full)	inactive
O=c1c2ccc(Cl)cc2[nH]c(=S)n1Cc1cccnc1	inactive
Cc1ccc(C2Nc3cccc4cccc(c34)N2)s1	inactive
Cc1ccc(Cl)cc1N1CCN(C(=O)CSc2ccsc2[N+](=O)[O-])CC1	inconclusive: 10.3 µM [falling, partial curve, poor fit]
O=C(CN1C2CCCC1CC(NC(=O)C1CCCCC1)C2)NCc1ccc(F)cc1 (stereo not given)	inconclusive: 18.4 µM [falling, partial curve]
CCOC(=O)c1cccc(NC(=O)COc2ccc3c(C)cc(=O)oc3c2)c1	inconclusive: 6.51 µM [falling, single point]
Cc1cc(=O)n2nc(N3CCC(C(=O)Nc4ccc(Br)c(C)c4)CC3)sc2n1	inactive
Cc1cccc(OCCNC(=O)c2cncc(Br)c2)c1	inconclusive: 16.4 µM [falling, partial curve]
CCCCc1cc(=O)oc2cc(OCC(=O)NCc3ccccn3)ccc12	inactive
O=C(CSc1nncn1-c1cccnc1)Nc1cccc(C(F)(F)F)c1	inconclusive: 32.6 µM [falling, single point]
COc1cccc(C(=O)Nc2cccc(C(=O)NC3=NN(c4c(Cl)cc(Cl)cc4Cl)C(=O)C3)c2)c1	inconclusive: 29.1 µM [falling, partial curve, poor fit]
COc1ccc(N2CCN(C(=O)Cc3csc(NC(=O)Nc4ccccc4OC)n3)CC2)cc1	inconclusive: 20.6 µM [falling, single point]
Cn1c(SCc2ccc(F)cc2)nc2ccc(C(=O)NCc3cccc(Cl)c3)cc21	active: 20.6 µM
O=C(CCSCc1ccccc1F)N1CCN(c2ccccn2)CC1	inconclusive: 8.2 µM [activator, partial curve, poor fit]
OCCCNCc1ccc(-c2ccccc2)cc1	inconclusive: 18.4 µM [activator, partial curve, poor fit]
COc1ccc2c(CNC3CCC(C)CC3)c(C(=O)O)n(Cc3ccc(F)cc3)c2c1 (stereo not given)	inactive
COc1cccc(OCCSc2nc3ccccc3n2CC(=O)N2CCOCC2)c1	inconclusive: 29.1 µM [falling, single point]
CC[n+]1ccc(/C=C2\Sc3ccccc3N2CCCS(=O)(=O)[O-])c2ccccc21	inactive
Cc1ccc(N(Cc2cccs2)C(=O)c2ccc(OC(C)C)cc2)cc1	inconclusive: 29.1 µM [falling, single point]
COc1ccc(-c2nn(-c3ccccc3)cc2/C=C2/SC(=S)N(CCC(=O)O)C2=O)c(C)c1	inconclusive: 23.1 µM [falling, partial curve, poor fit]
Cc1cccc(CNC(=O)C2CCN(c3nn4cc(-c5ccc(F)cc5)nc4s3)CC2)c1	inconclusive: 14.6 µM [activator, partial curve, poor fit]
O=C1c2ccccc2C(=O)N1CC1CO1 (stereo not given)	inactive

Structure (SMILES)	Potency
Cc1cc(C)cc(NC(=O)c2oc3ccccc3c2COc2ccccc2)c1	inactive
CCc1ccccc1N(CC)C(=O)c1cc2c(s1)-c1ccccc1SC2	inconclusive: 20.6 µM [falling, single point]
C[C@]12c3[nH]c4ccc(Cl)cc4c3CCN1C(=O)[C@@H](CC(=O)NCC13CC4CC(CC(C4)C1)C3)C[C@@H]2C(=O)N1CCCCC1	inconclusive: 20.6 µM [falling, single point]
Cc1ccc(NN2C(=O)C=C(c3ccc(Cl)cc3)C2=O)cc1	inactive
Cc1cccc(N=Nc2c(N)n[nH]c2N)c1	inconclusive: 13 µM [activator, partial curve, poor fit]
CC[n+]1c(C)n(-c2ccccc2)c2ccc(NC(C)=O)cc21	inconclusive: 11.6 µM [falling, partial curve, poor fit]
O=C(Nc1ccncc1)c1c(F)cccc1F	active: 9.2 µM
Cc1nc2ccccc2c2oc(C(=O)Nc3ccc(C(C)C)cc3)cc12	active: 14.6 µM
NNC(=O)C1COc2cc3ccccc3cc2O1 (stereo not given)	inconclusive: 20.6 µM [falling, single point]
COc1ccc(Nc2nc(N)nc(CSC(=S)N3CCOCC3)n2)cc1	inconclusive: 3.66 µM [activator, full curve]
CCc1cc(CNC(=O)c2cccc(OC3CCN(S(C)(=O)=O)CC3)c2)on1	inconclusive: 16.4 µM [falling, single point]
Cc1ccnc(Sc2ccc([N+](=O)[O-])cc2[N+](=O)[O-])n1	inconclusive: 18.4 µM [falling, single point]
O=C(Cc1ccc(F)cc1)N/N=C/c1ccc2c(c1)OCO2	inconclusive: 25.9 µM [activator, single point]
COc1cccc(CN2CCN(CC(=O)Nc3ccccc3Cl)CC2)c1	inactive
Cc1[nH]n(-c2ccccc2)c(=O)c1N=Nc1c(O)cc(S(=O)(=O)N(C)C)c2ccccc12	inconclusive: 14.6 µM [falling, partial curve, poor fit]
COc1ccc(-c2cn3c(n2)sc2cc(C(=O)NCCc4ccccc4)ccc23)cc1	inconclusive: 29.1 µM [falling, partial curve, poor fit]
COc1ccccc1/C=C/c1nc(C#N)c(NCc2ccccc2)o1	inactive
CCOc1ccc2c(ccc(/C=C/c3cc(C)c4cccnc4c3O)[n+]2C)c1	inconclusive: 18.4 µM [falling, single point]
COc1ccc(C(=O)Nn2c(CC(C)C)nc3cc(Cl)ccc3c2=O)c(OC)c1	inconclusive: 20.6 µM [falling, single point]
COc1ccc(CC2(C)OC(c3ccc(C)c([N+](=O)[O-])c3)=NN2C(C)=O)cc1 (stereo not given)	inconclusive: 16.4 µM [falling, single point]
COc1ccc(C(CCNCc2ccc(N(C)C)cc2)c2ccccc2OC)cc1 (stereo not given)	inactive
COc1ccccc1-c1cc(C(=O)Nc2cccnc2)no1	inconclusive: 2.06 µM [activator, full curve, poor fit]
CC(=O)NCCc1ccc(C(=O)Cn2cnc3ccccc3c2=O)cc1	inconclusive: 9.2 µM [activator, partial curve]
Nn1c(Cc2ccc(Br)cc2)n[nH]c1=S	inconclusive: 4.11 µM [falling, partial curve, poor fit]

As a working copy, part of the list above.
Structure (SMILES)	Potency
CCc1ccccc1N(CC)C(=O)c1cc2c(s1)-c1ccccc1SC2	inconclusive: 20.6 µM [falling, single point]
C[C@]12c3[nH]c4ccc(Cl)cc4c3CCN1C(=O)[C@@H](CC(=O)NCC13CC4CC(CC(C4)C1)C3)C[C@@H]2C(=O)N1CCCCC1	inconclusive: 20.6 µM [falling, single point]
Cc1ccc(NN2C(=O)C=C(c3ccc(Cl)cc3)C2=O)cc1	inactive
Cc1cccc(N=Nc2c(N)n[nH]c2N)c1	inconclusive: 13 µM [activator, partial curve, poor fit]
CC[n+]1c(C)n(-c2ccccc2)c2ccc(NC(C)=O)cc21	inconclusive: 11.6 µM [falling, partial curve, poor fit]

(cont.)

Structure (SMILES)	Potency
COc1ccc(OC)c(N(CC(=O)Nc2cccc3ccccc23)S(C)(=O)=O)c1	inconclusive: 29.1 µM [activator, single point]
COc1ccc(CCNc2ncnc3sc(C)cc23)cc1OC	active: 23.1 µM
CCOc1ccc(-c2cn3c(n2)sc2cc(C(=O)NC(C)C45CC6CC(CC(C6)C4)C5)ccc23)cc1 (stereo not given)	inconclusive: 4.11 µM [activator, full curve]
Cc1ccc(S(=O)(=O)N2[C@@H](c3ccccc3F)C(C(=O)O)=CC[C@H]2c2ccc(C(C)C)cc2)cc1	inconclusive: 16.4 µM [falling, single point]
COc1ccccc1NC(=O)CC(=O)CSc1nnc(-c2ccc(C)cc2)n1-c1ccccc1	inactive
Cn1nc(C(=O)NC2CCCN(Cc3ccccc3F)C2)c2ccccc2c1=O (stereo not given)	inactive
Cc1cccc(-n2ccnc2SCC(=O)O)c1C	inactive
CC(O)CN=c1cc(-c2ccccc2)oc2ccc(Cl)cc12 (stereo not given)	inactive
CN1CCCc2cc(C=O)ccc21	inactive
CC(C)c1ccc(NC2CCCN(C(=O)c3cnn(C(C)C)c3)C2)cc1 (stereo not given)	inconclusive: 29.1 µM [falling, single point]
Cc1ccccc1OCC(O)CN1C(=O)c2ccccc2C1=O (stereo not given)	inconclusive: 10.3 µM [activator, partial curve]
Cc1ccc(-c2csc3nc(CSc4nnc(-c5ccc(Cl)cc5)n4C)[nH]c(=O)c23)cc1	inactive
Cc1ccc(SCC(=O)c2c(C)nc3cc(C)ccn23)cc1	inconclusive: 18.4 µM [falling, single point]
O=C(Nc1ccc(Br)cc1)c1ccc(N2C(=O)C3CCCCC3C2=O)cc1 (stereo not given)	inconclusive: 23.1 µM [falling, partial curve, poor fit]
CC(C)Cn1c(O)c(N=NC(=O)c2cccc(S(=O)(=O)N3CCCCC3)c2)c2ccccc21	active: 20.6 µM
O=C(Nc1cccc(S(=O)(=O)N2CCCCCC2)c1)C1CCN(C(=O)c2ccc(F)cc2)CC1	active: 25.9 µM
Cn1c(=O)c2c(SCc3cccnc3)nc(CC(C)(C)C)nc2n(C)c1=O	inconclusive: 23.1 µM [falling, partial curve, poor fit]
CCOC(=O)C1=NS(=O)(=O)NC(C)=C1	inactive
COc1cccc(-c2nc(CS(=O)CC(=O)NCc3ccccc3Cl)c(C)o2)c1 (stereo not given)	inconclusive: 2.91 µM [falling, partial curve, poor fit]
COc1ccc(-c2cc(C(=O)NCCN3CCOCC3)c3ccccc3n2)cc1	inactive
Fc1ccc(-n2cc(CNCCc3ccccn3)c(-c3ccccc3Cl)n2)cc1	inconclusive: 29.1 µM [activator, single point]
COc1ccc(CNC(=O)c2cc(-c3ccccc3O)n[nH]2)cc1	inconclusive: 16.4 µM [falling, partial curve, poor fit]
